The other results are listed elsewhere or left out. Most values lie at the level of the controls, where differences are scatter.
Compound: CN[C@@H]1C[C@H]2O[C@@](C)([C@@H]1OC)n1c3ccccc3c3c4c(c5c6ccccc6n2c5c31)C(=O)NC4 [staurosporine]
Assay: log2 fold change of tryptic peptide abundance, ligand vs vehicle (limited proteolysis) (log2 ratio); higher = more trypsin-susceptible (destabilized)
Conditions: ligand concentration: 20 uM; sample: K562 cleared lysate; digestion: 4 min, 22 C (HT-PELSA RT4min, Orbitrap Astral)

Amino acid sequences for entries named in this document (tags omitted). A change or cut given only in a name is not applied to a line headed by its entry.
UniProt Q14687: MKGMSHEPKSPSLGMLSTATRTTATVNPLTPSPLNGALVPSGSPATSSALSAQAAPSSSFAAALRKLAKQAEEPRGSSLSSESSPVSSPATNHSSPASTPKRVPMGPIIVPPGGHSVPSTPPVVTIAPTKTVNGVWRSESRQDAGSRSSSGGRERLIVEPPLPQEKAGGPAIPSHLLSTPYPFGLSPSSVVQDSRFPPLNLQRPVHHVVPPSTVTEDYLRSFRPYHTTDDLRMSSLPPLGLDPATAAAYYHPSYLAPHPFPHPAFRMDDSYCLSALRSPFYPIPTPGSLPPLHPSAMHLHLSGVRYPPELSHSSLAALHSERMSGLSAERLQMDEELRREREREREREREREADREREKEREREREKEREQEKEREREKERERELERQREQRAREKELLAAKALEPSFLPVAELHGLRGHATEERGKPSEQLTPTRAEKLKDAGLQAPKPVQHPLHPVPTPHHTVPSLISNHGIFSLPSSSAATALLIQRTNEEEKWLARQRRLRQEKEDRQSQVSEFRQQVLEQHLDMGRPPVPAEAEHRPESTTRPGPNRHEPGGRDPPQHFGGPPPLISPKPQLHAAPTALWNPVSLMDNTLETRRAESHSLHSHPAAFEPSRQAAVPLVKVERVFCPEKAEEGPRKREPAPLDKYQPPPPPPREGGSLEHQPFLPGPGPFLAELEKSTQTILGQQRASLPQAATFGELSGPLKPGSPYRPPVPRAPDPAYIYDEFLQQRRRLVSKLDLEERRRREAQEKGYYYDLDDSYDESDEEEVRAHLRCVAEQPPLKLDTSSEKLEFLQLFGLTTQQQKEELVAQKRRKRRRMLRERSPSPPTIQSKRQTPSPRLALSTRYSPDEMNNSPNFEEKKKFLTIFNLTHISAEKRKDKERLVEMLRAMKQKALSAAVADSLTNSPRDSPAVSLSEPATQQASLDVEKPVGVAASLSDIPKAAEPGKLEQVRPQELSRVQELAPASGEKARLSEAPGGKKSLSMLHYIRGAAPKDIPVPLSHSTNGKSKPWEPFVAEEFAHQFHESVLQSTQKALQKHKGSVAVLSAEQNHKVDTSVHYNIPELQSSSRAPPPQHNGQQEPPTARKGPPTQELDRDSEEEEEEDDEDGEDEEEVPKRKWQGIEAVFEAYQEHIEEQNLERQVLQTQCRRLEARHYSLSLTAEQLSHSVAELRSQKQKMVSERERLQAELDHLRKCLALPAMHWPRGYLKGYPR
UniProt Q147U1: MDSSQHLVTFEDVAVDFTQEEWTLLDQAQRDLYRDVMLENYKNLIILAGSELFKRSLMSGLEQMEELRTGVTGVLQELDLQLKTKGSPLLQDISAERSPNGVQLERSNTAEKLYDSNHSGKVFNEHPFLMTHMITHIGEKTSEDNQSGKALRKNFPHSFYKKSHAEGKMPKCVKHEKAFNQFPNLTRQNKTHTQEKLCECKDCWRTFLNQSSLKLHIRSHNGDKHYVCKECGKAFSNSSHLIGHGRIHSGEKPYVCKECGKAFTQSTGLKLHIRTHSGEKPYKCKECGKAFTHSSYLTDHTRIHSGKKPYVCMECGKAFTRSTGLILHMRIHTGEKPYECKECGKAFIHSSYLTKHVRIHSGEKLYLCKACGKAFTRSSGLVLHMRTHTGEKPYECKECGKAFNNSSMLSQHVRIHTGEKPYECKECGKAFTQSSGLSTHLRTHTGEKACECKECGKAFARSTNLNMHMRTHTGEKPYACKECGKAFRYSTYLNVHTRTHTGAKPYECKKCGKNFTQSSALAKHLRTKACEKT
UniProt Q14738, whole entry: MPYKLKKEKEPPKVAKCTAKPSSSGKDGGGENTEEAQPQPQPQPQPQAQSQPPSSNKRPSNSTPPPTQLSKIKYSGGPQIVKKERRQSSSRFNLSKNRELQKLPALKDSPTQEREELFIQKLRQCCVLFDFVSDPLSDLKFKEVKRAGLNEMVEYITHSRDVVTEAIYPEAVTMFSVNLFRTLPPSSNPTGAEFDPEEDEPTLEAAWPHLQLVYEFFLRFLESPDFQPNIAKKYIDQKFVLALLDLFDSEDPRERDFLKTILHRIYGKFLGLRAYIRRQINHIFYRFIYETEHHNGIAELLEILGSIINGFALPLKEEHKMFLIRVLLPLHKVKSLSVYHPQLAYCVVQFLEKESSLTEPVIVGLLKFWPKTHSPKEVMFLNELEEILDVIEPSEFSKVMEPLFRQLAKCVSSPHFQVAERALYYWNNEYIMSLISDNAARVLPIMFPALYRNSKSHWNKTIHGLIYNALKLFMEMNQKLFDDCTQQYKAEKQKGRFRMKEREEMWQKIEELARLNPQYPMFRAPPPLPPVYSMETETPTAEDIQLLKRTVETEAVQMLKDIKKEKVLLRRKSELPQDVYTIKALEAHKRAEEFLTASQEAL
UniProt Q15011: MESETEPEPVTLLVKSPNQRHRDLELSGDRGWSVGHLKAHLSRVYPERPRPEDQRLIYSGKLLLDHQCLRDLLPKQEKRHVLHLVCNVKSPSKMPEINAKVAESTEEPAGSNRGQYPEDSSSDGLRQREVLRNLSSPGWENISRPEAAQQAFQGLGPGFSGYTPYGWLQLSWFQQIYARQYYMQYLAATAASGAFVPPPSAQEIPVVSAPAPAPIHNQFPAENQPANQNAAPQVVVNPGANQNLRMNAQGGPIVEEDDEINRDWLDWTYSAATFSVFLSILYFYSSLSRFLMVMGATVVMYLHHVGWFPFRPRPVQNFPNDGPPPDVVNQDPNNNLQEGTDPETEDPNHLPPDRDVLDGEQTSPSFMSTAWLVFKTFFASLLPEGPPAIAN
UniProt Q13686: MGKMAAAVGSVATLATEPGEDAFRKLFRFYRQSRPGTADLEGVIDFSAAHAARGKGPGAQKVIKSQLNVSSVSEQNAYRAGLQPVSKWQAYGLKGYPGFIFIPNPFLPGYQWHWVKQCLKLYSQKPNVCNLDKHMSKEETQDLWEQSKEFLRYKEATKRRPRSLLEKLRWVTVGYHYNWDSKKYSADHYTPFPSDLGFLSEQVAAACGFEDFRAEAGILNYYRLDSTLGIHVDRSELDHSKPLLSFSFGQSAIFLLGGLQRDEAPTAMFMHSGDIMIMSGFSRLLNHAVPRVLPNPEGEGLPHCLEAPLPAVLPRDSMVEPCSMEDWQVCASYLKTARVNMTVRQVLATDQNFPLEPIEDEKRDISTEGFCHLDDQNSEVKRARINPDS
UniProt Q13404: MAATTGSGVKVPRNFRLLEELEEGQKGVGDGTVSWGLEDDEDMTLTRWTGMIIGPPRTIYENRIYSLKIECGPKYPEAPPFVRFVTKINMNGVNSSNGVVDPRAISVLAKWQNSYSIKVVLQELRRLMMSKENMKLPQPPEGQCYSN
UniProt Q14534: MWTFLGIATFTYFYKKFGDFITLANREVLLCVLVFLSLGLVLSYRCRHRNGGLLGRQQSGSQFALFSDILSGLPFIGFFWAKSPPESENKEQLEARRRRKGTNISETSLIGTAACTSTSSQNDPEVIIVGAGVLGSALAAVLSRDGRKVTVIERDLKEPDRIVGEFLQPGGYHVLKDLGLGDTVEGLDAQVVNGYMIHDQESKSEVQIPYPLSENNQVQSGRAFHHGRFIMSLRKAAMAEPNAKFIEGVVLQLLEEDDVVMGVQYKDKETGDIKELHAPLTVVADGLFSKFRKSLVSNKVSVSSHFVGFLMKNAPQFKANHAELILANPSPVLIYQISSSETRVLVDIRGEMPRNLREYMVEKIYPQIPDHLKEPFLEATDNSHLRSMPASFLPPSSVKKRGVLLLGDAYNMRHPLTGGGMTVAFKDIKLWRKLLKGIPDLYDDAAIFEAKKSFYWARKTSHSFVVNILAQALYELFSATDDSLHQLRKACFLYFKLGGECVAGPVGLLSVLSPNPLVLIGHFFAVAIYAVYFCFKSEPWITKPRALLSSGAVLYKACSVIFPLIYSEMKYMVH

Target	log2 fold change
GSE1 (peptide sequence: MDDSYCLSALR, peptide start residue: 267) (UniProt Q14687)	-0.172
UniProt Q147U1 (peptide sequence: THTGEKPYECK, peptide start residue: 272)	-0.142
PPP2R5D (peptide sequence: AGLNEMVEYITHSR, peptide start residue: 147) (UniProt Q14738)	0.443
HERPUD1 (peptide sequence: HVLHLVCNVK, peptide start residue: 80) (UniProt Q15011)	-0.0872
ALKBH1 (peptide sequence: LYSQKPNVCNLDK, peptide start residue: 121) (UniProt Q13686)	-0.167
UBE2V1 (peptide sequence: WQNSYSIK, peptide start residue: 109) (UniProt Q13404)	0.451
SQLE (peptide sequence: SPPESENKEQLEAR, peptide start residue: 83) (UniProt Q14534)	0.392

From the supplement of paper PMC12819154, “High-throughput peptide-centric local stability assay extends protein–ligand identification to membrane proteins, tissues and bacteria” (Nature Structural & Molecular Biology, 2025)
